{"sequences": {"note": "Protein sequences, listed by entry. Tags and fused reporters are not part of them.", "UniProt Q8IZL8": "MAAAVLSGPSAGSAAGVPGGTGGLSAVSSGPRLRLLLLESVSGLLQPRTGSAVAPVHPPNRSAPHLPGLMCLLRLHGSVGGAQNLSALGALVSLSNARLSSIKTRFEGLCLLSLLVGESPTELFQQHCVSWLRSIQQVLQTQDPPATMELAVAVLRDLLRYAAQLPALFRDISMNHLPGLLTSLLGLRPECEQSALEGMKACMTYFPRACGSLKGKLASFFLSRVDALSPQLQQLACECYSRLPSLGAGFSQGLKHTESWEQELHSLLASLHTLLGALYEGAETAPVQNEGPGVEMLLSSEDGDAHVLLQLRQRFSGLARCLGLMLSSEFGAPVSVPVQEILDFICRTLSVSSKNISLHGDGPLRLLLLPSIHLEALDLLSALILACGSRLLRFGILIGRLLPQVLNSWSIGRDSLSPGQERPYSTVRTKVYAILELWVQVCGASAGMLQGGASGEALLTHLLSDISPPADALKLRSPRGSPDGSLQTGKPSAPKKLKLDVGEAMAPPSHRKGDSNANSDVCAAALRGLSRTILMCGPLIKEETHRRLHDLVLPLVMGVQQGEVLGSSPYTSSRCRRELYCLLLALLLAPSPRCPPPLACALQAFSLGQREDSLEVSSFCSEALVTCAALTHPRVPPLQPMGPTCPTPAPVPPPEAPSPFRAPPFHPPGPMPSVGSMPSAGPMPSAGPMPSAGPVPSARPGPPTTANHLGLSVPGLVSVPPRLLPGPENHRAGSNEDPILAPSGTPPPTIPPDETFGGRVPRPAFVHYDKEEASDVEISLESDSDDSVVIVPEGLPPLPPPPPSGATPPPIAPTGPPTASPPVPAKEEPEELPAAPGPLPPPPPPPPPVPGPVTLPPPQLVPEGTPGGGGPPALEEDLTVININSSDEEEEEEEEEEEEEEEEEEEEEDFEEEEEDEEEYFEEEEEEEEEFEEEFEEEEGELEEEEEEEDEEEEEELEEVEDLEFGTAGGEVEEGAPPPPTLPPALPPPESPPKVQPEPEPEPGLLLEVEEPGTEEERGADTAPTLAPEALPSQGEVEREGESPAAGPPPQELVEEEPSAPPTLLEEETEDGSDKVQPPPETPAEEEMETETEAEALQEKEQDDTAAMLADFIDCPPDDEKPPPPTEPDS", "UniProt Q9H4L4": "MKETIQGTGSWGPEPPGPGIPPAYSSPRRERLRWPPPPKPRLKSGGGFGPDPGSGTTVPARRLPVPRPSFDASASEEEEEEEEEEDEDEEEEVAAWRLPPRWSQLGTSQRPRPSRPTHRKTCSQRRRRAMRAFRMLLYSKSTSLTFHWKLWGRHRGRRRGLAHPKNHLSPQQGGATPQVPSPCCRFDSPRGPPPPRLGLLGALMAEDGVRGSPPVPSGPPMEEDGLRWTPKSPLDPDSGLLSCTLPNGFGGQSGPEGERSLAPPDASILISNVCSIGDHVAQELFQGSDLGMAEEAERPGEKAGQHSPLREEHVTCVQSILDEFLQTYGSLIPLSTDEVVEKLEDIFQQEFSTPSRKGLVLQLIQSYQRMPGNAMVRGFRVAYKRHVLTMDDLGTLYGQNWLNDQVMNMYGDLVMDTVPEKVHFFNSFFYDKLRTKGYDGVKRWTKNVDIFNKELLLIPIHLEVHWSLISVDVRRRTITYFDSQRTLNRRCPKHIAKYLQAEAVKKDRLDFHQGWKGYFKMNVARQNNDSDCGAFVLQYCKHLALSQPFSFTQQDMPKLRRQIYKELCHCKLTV"}, "source": "paper PMC11467795", "molecular_target": "PELP1-GFP (proline-, glutamic acid-, and leucine-rich protein 1 fused to GFP) (UniProt Q8IZL8)", "assay": "co-IP; PELP1-GFP precipitated with GFP-Trap beads (6 h) from RL95-2-PELP1-GFP and HEK293T-PELP1-GFP cells treated with vehicle or SMIP34 (15 uM, 6 h); high salt lysis buffer (500 mM NaCl, 50 mM HEPES pH 7.5, 5 mM MgCl2, 5% glycerol, 0.5% NP-40, Benzonase); partners detected by Western blotting", "note": "These are yes or no findings as the source states them, for the method shown. In cells and extracts the contact can be indirect. Some entries that bind do so weakly or less than the wild type.", "data": [{"molecule": "SENP3 (from UniProt Q9H4L4 1-574)", "values": [{"measurement": "binding", "value": "binds"}]}, {"molecule": "WDR18 (protein, UniProt Q9BV38 1-432) MAAPMEVAVCTDSAAPMWSCIVWELHSGANLLTYRGGQAGPRGLALLNGEYLLAAQLGKNYISAWELQRKDQLQQKIMCPGPVTCLTASPNGLYVLAGVAESIHLWEVSTGNLLVILSRHYQDVSCLQFTGDSSHFISGGKDCLVLVWSLCSVLQADPSRIPAPRHVWSHHALPITDLHCGFGGPLARVATSSLDQTVKLWEVSSGELLLSVLFDVSIMAVTMDLAEHHMFCGGSEGSIFQVDLFTWPGQRERSFHPEQDAGKVFKGHRNQVTCLSVSTDGSVLLSGSHDETVRLWDVQSKQCIRTVALKGPVTNAAILLAPVSMLSSDFRPSLPLPHFNKHLLGAEHGDEPRHGGLTLRLGLHQQGSEPSYLDRTEQLQAVLCSTMEKSVLGGQDQLRVRVTELEDEVRNLRKINRDLFDFSTRFITRPAK", "values": [{"measurement": "binding", "value": "binds"}]}, {"molecule": "TEX10 (protein, UniProt Q9NXF1 1-929) MTKKRKRQHDFQKVKLKVGKKKPKLQNATPTNFKTKTIHLPEQLKEDGTLPTNNRKLNIKDLLSQMHHYNAGVKQSALLGLKDLLSQYPFIIDAHLSNILSEVTAVFTDKDANVRLAAVQLLQFLAPKIRAEQISPFFPLVSAHLSSAMTHITEGIQEDSLKVLDILLEQYPALITGRSSILLKNFVELISHQQLSKGLINRDRSQSWILSVNPNRRLTSQQWRLKVLVRLSKFLQALADGSSRLRESEGLQEQKENPHATSNSIFINWKEHANDQQHIQVYENGGSQPNVSSQFRLRYLVGGLSGVDEGLSSTENLKGFIEIIIPLLIECWVEAVPPQLATPVGNGIEREPLQVMQQVLNIISLLWKLSKQQDETHKLESWLRKNYLIDFKHHFMSRFPYVLKEITKHKRKEPNKSIKHCTVLSNNIDHLLLNLTLSDIMVSLANASTLQKDCSWIEMIRKFVTETLEDGSRLNSKQLNRLLGVSWRLMQIQPNREDTETLIKAVYTLYQQRGLILPVRTLLLKFFSKIYQTEELRSCRFRYRSKVLSRWLAGLPLQLAHLGSRNPELSTQLIDIIHTAAARANKELLKSLQATALRIYDPQEGAVVVLPADSQQRLVQLVYFLPSLPADLLSRLSRCCIMGRLSSSLAAMLIGILHMRSSFSGWKYSAKDWLMSDVDYFSFLFSTLTGFSKEELTWLQSLRGVPHVIQTQLSPVLLYLTDLDQFLHHWDVTEAVFHSLLVIPARSQNFDILQSAISKHLVGLTVIPDSTAGCVFGVICKLLDHTCVVSETLLPFLASCCYSLLYFLLTIEKGEAEHLRKRDKLWGVCVSILALLPRVLRLMLQSLRVNRVGPEELPVVGQLLRLLLQHAPLRTHMLTNAILVQQIIKNITTLKSGSVQEQWLTDLHYCFNVYITGHPQGPSALATVY", "values": [{"measurement": "binding", "value": "binds"}]}]}
